Test results published in the supplement of paper PMC8728848.
The other results are listed elsewhere or left out.

Columns and labels:
Experiment in all cases: glycan array binding signal (z-score within array); higher = stronger binding
Settings in all cases: glycan notation: IUPAC condensed, linker removed; mutation: Q318A
[1] = molecular target: Neu5Ac(a2-6)GlcNAc(b1-4)GlcNAc(b1-4)GlcNAc
Summary of the method: (§1)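 Glycan array data were curated from 3228 arrays in the Consortium for Functional Glycomics database and kept only where the protein sequence was available. Glycan names were converted to IUPAC-condensed notation, and columns mapping to the same glycan were averaged. The binding signal is a within-array Z-score, averaged across arrays of the same protein sequence at different concentrations or buffers and across linkers. Negative Z-scores can be read as non-binding.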

Neu5Ac(a2-8)Neu5Ac = molecular target: Neu5Ac(a2-8)Neu5Ac
Summary of the method: as §1

[2] = molecular target: Neu5Ac(a2-8)Neu5Ac(a2-3)Gal(b1-3)GalNAc(b1-4)[Neu5Ac(a2-3)]Gal(b1-4)Glc
Summary of the method: as §1

[3] = molecular target: Neu5Ac(a2-8)Neu5Ac(a2-3)Gal(b1-3)GalNAc(b1-4)[Neu5Ac(a2-8)Neu5Ac(a2-3)]Gal(b1-4)Glc
Summary of the method: as §1

[4] = molecular target: Neu5Ac(a2-8)Neu5Ac(a2-3)Gal(b1-4)Glc
Summary of the method: as §1

[5] = molecular target: Neu5Ac(a2-8)Neu5Ac(a2-3)Gal(b1-4)GlcNAc
Summary of the method: as §1

[6] = molecular target: Neu5Ac(a2-8)Neu5Ac(a2-3)[Gal(b1-3)GalNAc(b1-4)]Gal(b1-4)Glc
Summary of the method: as §1

[7] = molecular target: Neu5Ac(a2-8)Neu5Ac(a2-3)[GalNAc(b1-4)]Gal(b1-4)Glc
Summary of the method: as §1

[8] = molecular target: Neu5Ac(a2-8)Neu5Ac(a2-8)Neu5Ac
Summary of the method: as §1

[9] = molecular target: Neu5Ac(a2-8)Neu5Ac(a2-8)Neu5Ac(a2-3)Gal(b1-4)Glc
Summary of the method: as §1

[10] = molecular target: Neu5Ac(a2-8)Neu5Ac(a2-8)Neu5Ac(a2-3)[Gal(b1-3)GalNAc(b1-4)]Gal(b1-4)Glc
Summary of the method: as §1

[11] = molecular target: Neu5Ac(a2-8)Neu5Ac(a2-8)Neu5Ac(a2-3)[GalNAc(b1-4)]Gal(b1-4)Glc
Summary of the method: as §1

[12] = molecular target: Neu5Ac(a2-8)Neu5Ac(a2-8)Neu5Ac(a2-8)Neu5Ac(a2-3)[GalNAc(b1-4)]Gal(b1-4)Glc
Summary of the method: as §1

[13] = molecular target: Neu5Ac(a2-8)Neu5Gc(a2-3)Gal(b1-4)GlcNAc
Summary of the method: as §1

[14] = molecular target: Neu5Ac(b2-6)Gal(b1-4)GlcNAc
Summary of the method: as §1

Neu5Ac(b2-6)GalNAc = molecular target: Neu5Ac(b2-6)GalNAc
Summary of the method: as §1

[15] = molecular target: Neu5Ac9Ac(a2-3)Gal(b1-3)GlcNAc
Summary of the method: as §1

[16] = molecular target: Neu5Ac9Ac(a2-3)Gal(b1-4)GlcNAc
Summary of the method: as §1

[17] = molecular target: Neu5Ac9Ac(a2-6)Gal(b1-4)GlcNAc
Summary of the method: as §1

[18] = molecular target: Neu5Gc(a2-3)Gal(b1-3)GlcNAc
Summary of the method: as §1

[19] = molecular target: Neu5Gc(a2-3)Gal(b1-3)[Fuc(a1-4)]GlcNAc
Summary of the method: as §1

Neu5Gc(a2-3)Gal(b1-4)Glc = molecular target: Neu5Gc(a2-3)Gal(b1-4)Glc
Summary of the method: as §1

[20] = molecular target: Neu5Gc(a2-3)Gal(b1-4)GlcNAc
Summary of the method: as §1

[21] = molecular target: Neu5Gc(a2-3)Gal(b1-4)GlcNAc(b1-3)Gal(b1-4)GlcNAc(b1-2)Man(a1-3)[Neu5Gc(a2-3)Gal(b1-4)GlcNAc(b1-3)Gal(b1-4)GlcNAc(b1-2)Man(a1-6)]Man(b1-4)GlcNAc(b1-4)GlcNAc
Summary of the method: as §1

[22] = molecular target: Neu5Gc(a2-3)Gal(b1-4)[Fuc(a1-3)]GlcNAc
Summary of the method: as §1

[23] = molecular target: Neu5Gc(a2-6)Gal(b1-4)GlcNAc
Summary of the method: as §1

Neu5Gc(a2-6)GalNAc = molecular target: Neu5Gc(a2-6)GalNAc
Summary of the method: as §1

[24] = molecular target: Neu5Gc(a2-8)Neu5Ac(a2-3)Gal(b1-4)GlcNAc
Summary of the method: as §1

[25] = molecular target: Neu5Gc(a2-8)Neu5Gc(a2-3)Gal(b1-4)GlcNAc
Summary of the method: as §1

[26] = molecular target: Neu5Gc(a2-8)Neu5Gc(a2-3)Gal(b1-4)GlcNAc(b1-3)Gal(b1-4)GlcNAc
Summary of the method: as §1

[27] = molecular target: Neu5Gc(a2-8)Neu5Gc(a2-6)Gal(b1-4)GlcNAc
Summary of the method: as §1

[28] = molecular target: Neu5Gc(b2-6)Gal(b1-4)GlcNAc
Summary of the method: as §1

B1: SUN4 (Saccharomyces cerevisiae), P53616 (protein)
chain: MGSSHHHHHHSSGLVPRGSHNGSIYGDLADFSGPYEKFEDGTIPCGQFPSGQGVIPISWLDEGGWSGVENTDTSTGGSCKEGSYCSYACQPGMSKTQWPSDQPSDGRSIGGLLCKDGYLYRSNTDTDYLCEWGVDAAYVVSELSNDVAICRTDYPGTENMVIPTYVQAGDSLPLTVVDQDTYYTWQGLKTSAAYYVNNAGISVEDACVWGSSSSGVGNWAPLNFGAGSSDGVAYLSLIPNPNNGNALNFNVKIVAADDSSTVNGECIYENGSFSGGSDGCTVSVTAGKAKFVLYN
- glycan array binding signal (z-score) [1]: -0.241
- glycan array binding signal (z-score) (Neu5Ac(a2-8)Neu5Ac): 0.539
- glycan array binding signal (z-score) [2]: 0.191
- glycan array binding signal (z-score) [3]: 0.136
- glycan array binding signal (z-score) [4]: -0.702
- glycan array binding signal (z-score) [5]: -0.159
- glycan array binding signal (z-score) [6]: 0.466
- glycan array binding signal (z-score) [7]: 0.84
- glycan array binding signal (z-score) [8]: 0.044
- glycan array binding signal (z-score) [9]: -0.895
- glycan array binding signal (z-score) [10]: 0.765
- glycan array binding signal (z-score) [11]: 0.477
- glycan array binding signal (z-score) [12]: 0.81
- glycan array binding signal (z-score) [13]: -0.302
- glycan array binding signal (z-score) [14]: 0.374
- glycan array binding signal (z-score) (Neu5Ac(b2-6)GalNAc): -0.678
- glycan array binding signal (z-score) [15]: -0.293
- glycan array binding signal (z-score) [16]: -0.725
- glycan array binding signal (z-score) [17]: -0.217
- glycan array binding signal (z-score) [18]: -0.339
- glycan array binding signal (z-score) [19]: 1.56
- glycan array binding signal (z-score) (Neu5Gc(a2-3)Gal(b1-4)Glc): 0.42
- glycan array binding signal (z-score) [20]: 1.32
- glycan array binding signal (z-score) [21]: 0.246
- glycan array binding signal (z-score) [22]: -0.13
- glycan array binding signal (z-score) [23]: -0.333
- glycan array binding signal (z-score) (Neu5Gc(a2-6)GalNAc): -0.69
- glycan array binding signal (z-score) [24]: -0.256
- glycan array binding signal (z-score) [25]: -0.635
- glycan array binding signal (z-score) [26]: -0.729
- glycan array binding signal (z-score) [27]: -0.257
- glycan array binding signal (z-score) [28]: -0.461
